Measured values: US20250136711A1 (SHANGHAI BIOTROY BIOTECHNIQUE, published 2025)
These are yes or no findings as the source states them, for the method shown. Some binding calls cover weakened binding; strength is not graded here.

By UniProt entry, the sequences of proteins in these tests, tags left out. Residues count along the entry.
UniProt P04279, residues 24-462: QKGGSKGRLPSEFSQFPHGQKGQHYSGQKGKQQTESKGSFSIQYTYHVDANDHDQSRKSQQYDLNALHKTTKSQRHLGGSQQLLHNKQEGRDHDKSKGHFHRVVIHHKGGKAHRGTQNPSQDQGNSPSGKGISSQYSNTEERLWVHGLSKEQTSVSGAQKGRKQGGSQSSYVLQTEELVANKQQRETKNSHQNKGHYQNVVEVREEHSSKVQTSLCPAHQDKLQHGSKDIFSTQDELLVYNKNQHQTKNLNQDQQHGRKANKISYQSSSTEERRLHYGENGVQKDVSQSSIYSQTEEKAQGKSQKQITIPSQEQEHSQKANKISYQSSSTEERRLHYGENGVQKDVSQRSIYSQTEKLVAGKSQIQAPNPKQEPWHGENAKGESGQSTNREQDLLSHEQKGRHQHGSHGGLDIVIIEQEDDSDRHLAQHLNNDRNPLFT

Key:
[1] = molecular target: SEMG1 recombinant protein (semenogelin-1) (human) (UniProt P04279); assay: ELISA; full-length SEMG1 coated as positive control, antibody at 2.5 ug/mL
[2] = molecular target: T1, BSA-S1 polypeptide of SEMG1 (human); assay: ELISA on coated peptide; antibody at 2.5 ug/mL; positive if OD ratio to blank >3
T1 sequence (peptide, printed with the prefix 'BSA-' at the N-terminus (BSA conjugate)): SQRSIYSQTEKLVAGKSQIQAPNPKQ

binding [1]: binds
binding [2]: binds
B1: 4-D9-G6-H6 (antibody, V domains shown)
VH: QIQLVQSGPELKKPGETVKISCKASGYTFTNYGMNWVKQSPGKGLKWMGGINTNTGEPTYNEEFKGRFAFSLETSARTAYLRINNLKNEDTATYFCTRSVFALDYWGQGTSVTVSS
VL: DVVMTQTPLSLPVSLGDQASISCRSSQSLVHSNGNTYLQWYLQKPGQSPKLLIYKVSNRFSGVPDRFSGSGSGTDFTLKISRVEAEDLGVYFCSQSKHVPRTFGGGTKLEIK
